Measurements published in the supplement of paper PMC10011410.
Values are raw readings; no control value is given beside them.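 Each value averages three technical replicates run on separate plates. Reagent-free control wells on every plate corrected for the cells' own fluorescence, and DMSO-treated wells served as vehicle controls. No active or hit threshold is defined for these live-cell readings.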

Test system: U-2 OS
Assay: AUC of Cytotox red (membrane-compromised) object count (AUC (object count x time)); higher = more apoptotic or dead cells
Details: 20 µM
Protocol: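 Live-cell Incucyte imaging of U-2 OS cells with Caspase-3/7 Green and Cytotox Red reagents. Compounds were tested mostly at 5, 10 and 20 uM, and cells were imaged every 4 h for up to 60 h. Value is the area under the curve of positive object counts over time, per channel: green = caspase 3/7, red = membrane-compromised, overlap = both.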

For COC(=O)[C@]1(C)CC[C@]2(C)CC[C@]3(C)C4=CC=C5C(=CC(=O)C(O)=C5C)[C@]4(C)CC[C@@]3(C)[C@@H]2C1, the “AUC of Cytotox red” value was 862.
